Data from article PMC7819943, “Rice protein-binding microarrays: a tool to detect cis-acting elements near promoter regions in rice”.
The other results are listed elsewhere or left out.

Sequences of proteins named here, by UniProt entry; tags and fusion partners are left off.
UniProt Q0JBA9, entry or part of it: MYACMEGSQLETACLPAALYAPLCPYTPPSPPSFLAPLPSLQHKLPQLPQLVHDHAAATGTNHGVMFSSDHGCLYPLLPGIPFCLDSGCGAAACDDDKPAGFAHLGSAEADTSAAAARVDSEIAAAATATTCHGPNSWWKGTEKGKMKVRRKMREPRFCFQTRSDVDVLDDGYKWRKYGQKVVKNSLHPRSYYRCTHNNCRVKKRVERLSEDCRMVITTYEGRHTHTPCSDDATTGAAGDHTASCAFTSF

target: OsWRKY34 (Oryza sativa, UniProt Q0JBA9 1-250); assay: protein-binding microarray (RPBM); PBS, 2% BSA, 51.3 ng/ul salmon testes DNA, 50 uM zinc acetate, 200 nM TF, 25 C, 1 h; high values mean tight binding; conditions: protein: recombinant; tags: N-terminal polyhistidine and DsRed monomer fusion (pET32a); label: CyDye5-dUTP incorporated in the synthesized complementary strand; 3' TTTTT single-stranded linker to array surface; dsDNA, one strand shown
Outline: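 The binding signal for each feature is its fluorescence intensity in arbitrary units. An Axon 4000B scanner was used to read a custom Agilent array that had been made double-stranded with Cy5-dUTP primer extension, blocked with 2% BSA, incubated at 25 °C for 1 h with 200 nM protein in PBS, 2% BSA, salmon testes DNA and 50 µM zinc acetate, and washed. The protein was an N-terminal polyhistidine–DsRed transcription factor fusion from E. coli BL21-CodonPlus, purified on Ni–NTA.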

Sequence	binding signal
GCTTTGCATTTTGATGAATTTTCTGCTCGCTTTTTATTTTCGGAGTCACCTAGTGCAG	8780 fluorescence intensity (a.u.)
AATAATGTTCGCCTGTATATTGTGTTGTACGTGCTCTTTTCGGAGTCACCTAGTGCAG	10800 fluorescence intensity (a.u.)
AACTAAACGCCGTGGTCGTCGTCGCTTCGTATTCCATTTTCGGAGTCACCTAGTGCAG	9140 fluorescence intensity (a.u.)
CACTCCGCTGCCGCCCGCCGGAAGGGGAGGGGAGGAGGGGCGGAGTCACCTAGTGCAG	11700 fluorescence intensity (a.u.)
ATCCCCGTCACTCACATGCAGCTTCACTTCCAAAATGTTCCGGAGTCACCTAGTGCAG	12200 fluorescence intensity (a.u.)
CCCGCCCGGCTGCACTGCATATCTACCTTTTCTCACGTCACGGAGTCACCTAGTGCAG	8320 fluorescence intensity (a.u.)
TCTCGATTGCGCTTTGGTTAGACTGGTTAAAACGGTTGACCGGAGTCACCTAGTGCAG	8640 fluorescence intensity (a.u.)
GGGGTTGATAACTAATAATCTTGCTCACTTTTCAGCCGTTCGGAGTCACCTAGTGCAG	11500 fluorescence intensity (a.u.)
TTATTCAGTTTTTTTATACTTGTACAAATAGCTTTTACTTCGGAGTCACCTAGTGCAG	9650 fluorescence intensity (a.u.)
TCCATTGTTTTCATAAGTCCTTGGCCGATCACATGTCCAACGGAGTCACCTAGTGCAG	8280 fluorescence intensity (a.u.)
GGGAGTGGGGTGGCATGGTGGGTAATTTTTCACCCAATAACGGAGTCACCTAGTGCAG	9870 fluorescence intensity (a.u.)
CGCGCGCGTGGACTTTTTCGCGCCTCCGTCTCTTCGCCCTCGGAGTCACCTAGTGCAG	11000 fluorescence intensity (a.u.)
AACTACTCATTCCACAACTGCACAAGGATCACTCATCCTCCGGAGTCACCTAGTGCAG	9360 fluorescence intensity (a.u.)
GTTCGCCAGCCACCACGCGCACCGCCACTCGCTGCCTTCTCGGAGTCACCTAGTGCAG	9970 fluorescence intensity (a.u.)
TTTGCTGTCATAATCAAACGTCCAGGCCTCTTTTGCCACCCGGAGTCACCTAGTGCAG	10200 fluorescence intensity (a.u.)
GGACCCAAGTGAACTTATTCCCATGCGGAACAACCTACAACGGAGTCACCTAGTGCAG	9440 fluorescence intensity (a.u.)
TTCGTTACCAAAATTTGGCAGCAAACTGAATGTAGCCACTCGGAGTCACCTAGTGCAG	9020 fluorescence intensity (a.u.)
ATCCCAGCCACACGCTTGCTTTGTTTTTCCTCATCCTTGCCGGAGTCACCTAGTGCAG	9020 fluorescence intensity (a.u.)
TTTTCGATCACATCAAAACTTTCCTACACACACAAACTTTCGGAGTCACCTAGTGCAG	8640 fluorescence intensity (a.u.)
TTTTTAATAGATGACGCTGTTGACTTTTTCCCACATGTTTCGGAGTCACCTAGTGCAG	24200 fluorescence intensity (a.u.)
GGCCACCGCTATCCATGCACACACTTACAACCTATCCCTACGGAGTCACCTAGTGCAG	9850 fluorescence intensity (a.u.)
TCCTCGCTCGCTCACCTCACCTCACCTCACTCACCTACATCGGAGTCACCTAGTGCAG	10200 fluorescence intensity (a.u.)
CTGCCGGCACTTCCCGTCGTCGTCGATCACCGCTGCTCCCCGGAGTCACCTAGTGCAG	8990 fluorescence intensity (a.u.)
CGACCTCCGCCAGCCACGTCAACCTGACTTTTGTGAAAAACGGAGTCACCTAGTGCAG	8180 fluorescence intensity (a.u.)
TCCTGTCTGTTTGTCCCGGGGTCTCGTGGCACCTCAATTTCGGAGTCACCTAGTGCAG	12300 fluorescence intensity (a.u.)
AAGAAGCCGCCTTGGTTTGGTAGTACAATTGTTCATCGGCCGGAGTCACCTAGTGCAG	8330 fluorescence intensity (a.u.)
TTTGGAGCCATTTCGTTTAGTTTGAGTTCTTTCGGTGTTTCGGAGTCACCTAGTGCAG	11800 fluorescence intensity (a.u.)

3 entries drawn at random from those above, as already listed:
Sequence	binding signal
TCCATTGTTTTCATAAGTCCTTGGCCGATCACATGTCCAACGGAGTCACCTAGTGCAG	8280 fluorescence intensity (a.u.)
TCCTGTCTGTTTGTCCCGGGGTCTCGTGGCACCTCAATTTCGGAGTCACCTAGTGCAG	12300 fluorescence intensity (a.u.)
GGGAGTGGGGTGGCATGGTGGGTAATTTTTCACCCAATAACGGAGTCACCTAGTGCAG	9870 fluorescence intensity (a.u.)

Next part.

Sequence	binding signal
CAGGCTTCCCTCGCTCTCTTTAATCTGCCACCATCAACAACGGAGTCACCTAGTGCAG	8060 fluorescence intensity (a.u.)
GGTTTAGACGTGGCGGTGGTGGGTGGCGTACGTTTGGGTTCGGAGTCACCTAGTGCAG	12000 fluorescence intensity (a.u.)
CTCACCAACCTCGTCTCGTCTCGTCTCGTCTCGCCTCTCGCGGAGTCACCTAGTGCAG	10500 fluorescence intensity (a.u.)
GTCCCCGAACTTCCAGTTAATTATGTGCCGGTCCTAGATTCGGAGTCACCTAGTGCAG	9310 fluorescence intensity (a.u.)
GACACTGCCACCTCACTCTCCACTCCACTATATATACCCTCGGAGTCACCTAGTGCAG	12100 fluorescence intensity (a.u.)
CTCGCTTCTCGCGGCTAGGGTTTTAGGGTTTTTTTTTTCCCGGAGTCACCTAGTGCAG	11900 fluorescence intensity (a.u.)
GTCTGATTTTGGCTGTGTAAATCCGTCTCAGGATAGGCCGCGGAGTCACCTAGTGCAG	9130 fluorescence intensity (a.u.)
TGGTTGGTTGTGTTGTAATGGCTGTTAGTATTAGGAGAAACGGAGTCACCTAGTGCAG	12000 fluorescence intensity (a.u.)
CTTGTTTCTCTTTTTCCTTTTCATTTCAGTGTTGTGTAATCGGAGTCACCTAGTGCAG	13800 fluorescence intensity (a.u.)
CATCCTCGACGCTGACACTGGGGTGGAGGAGGTGGGGAGGCGGAGTCACCTAGTGCAG	12600 fluorescence intensity (a.u.)
CCTCTGCTACGTCCAGTTCCCGCAGCGCTTCGAGGGCATCCGGAGTCACCTAGTGCAG	8700 fluorescence intensity (a.u.)
GGTATCTTGTTCTGTCTGTTCTGATAGTATTTTGTATATCCGGAGTCACCTAGTGCAG	12000 fluorescence intensity (a.u.)
GGGCTGAATCGTTTTTTTTGTTGGTGTGCTTTGAATGCACCGGAGTCACCTAGTGCAG	10000 fluorescence intensity (a.u.)
TATGTTGCGTTTTAGTTTTAGTTCCATATATTTTAGCAGACGGAGTCACCTAGTGCAG	8780 fluorescence intensity (a.u.)
GGTGGCAAACACATTCTTCTTCCTGTTTCTAAACAAATCTCGGAGTCACCTAGTGCAG	8290 fluorescence intensity (a.u.)
TTTTTTTTGCCTTTCGCCACTGACTCGTGTCAACATCTCACGGAGTCACCTAGTGCAG	9550 fluorescence intensity (a.u.)
GGTCGCGTCTCCTCGTCTCGTCGCCTCTTCCTCCTTCCAACGGAGTCACCTAGTGCAG	12300 fluorescence intensity (a.u.)
GCCCGCCCGCCCGCCGCAGCCGCCGAGCATTTTAAGTATCCGGAGTCACCTAGTGCAG	9680 fluorescence intensity (a.u.)
CCCGCCGCCGCGGCTGCCACCGCACGTGCGTCGACCCCGCCGGAGTCACCTAGTGCAG	8730 fluorescence intensity (a.u.)
CCCAAGTCACCAGCATCACCACTCTCGCATGCTCCATTTCCGGAGTCACCTAGTGCAG	8770 fluorescence intensity (a.u.)
GAGAGGGGTGTGGGGCTCAATTTAGATCCTCTGCAGTGGACGGAGTCACCTAGTGCAG	10900 fluorescence intensity (a.u.)
TCATATCATATGGCATACTACTTCTATTCTTTTTTTTTTGCGGAGTCACCTAGTGCAG	8600 fluorescence intensity (a.u.)
ACCCACACCCACGGATCACTGCCCCACTCCCAACCCATCTCGGAGTCACCTAGTGCAG	10400 fluorescence intensity (a.u.)
ATCAGTCCCGTCCGTGCCCGCCGACCCACTCAAAGATCAACGGAGTCACCTAGTGCAG	8350 fluorescence intensity (a.u.)
GAATTTAGGGGTTGTTTGGTTGCTTCCTTGAGAATCATGCCGGAGTCACCTAGTGCAG	8840 fluorescence intensity (a.u.)
GGGTTCGAGTCCCACCAGGCGTGTCTTCGTTTTGGATTCTCGGAGTCACCTAGTGCAG	8220 fluorescence intensity (a.u.)
CTACTACCGTCGTATTTATGTTTTTTGTTTTTCAGATAAACGGAGTCACCTAGTGCAG	8800 fluorescence intensity (a.u.)
